Results are given in words; binding and its absence hold for the method and conditions named. Some results given as binding are weak or reduced against the parent protein; the word gives no strength.
How the values were obtained:
[1] = target: human SIRPa-Fc fusion protein (extracellular domain of human SIRPa fused to mouse Fc) (human) (UniProt P78324); experiment: competition ELISA on coated SIRPa-Fc; mouse 1H9 detected, excess 1H9 (or 3C2) is the varied competitor
[2] = target: human SIRPa-Fc fusion protein (extracellular domain of human SIRPa fused to mouse Fc) (human) (UniProt P78324); experiment: hybridoma screening ELISA, binding to human SIRPa
[3] = target: human SIRPa-Fc fusion protein (extracellular domain of human SIRPa fused to mouse Fc) (human) (UniProt P78324); experiment: ELISA on coated SIRPa-Fc; mouse 1H9 detected, bar without competitor
[4] = target: human SIRPa-Fc fusion protein (extracellular domain of human SIRPa fused to mouse Fc) (human) (UniProt P78324); experiment: ELISA on coated SIRPa-Fc; 1H9 detected in the absence or presence of 50- or 100-times excess of mouse Kwar
[5] = target: human SIRPa-Fc fusion protein (extracellular domain of human SIRPa fused to mouse Fc) (human) (UniProt P78324); experiment: ELISA on coated SIRPa-Fc; 9B11 detected in the absence or presence of 50x or 100x Kwar
[6] = target: human SIRPa-Fc fusion protein (extracellular domain of human SIRPa fused to mouse Fc) (human) (UniProt P78324); experiment: competition ELISA on coated SIRPa-Fc, against 3C2
[7] = target: human SIRPa-Fc fusion protein (extracellular domain of human SIRPa fused to mouse Fc) (human) (UniProt P78324); experiment: competition ELISA on coated SIRPa-Fc; Kwar is the varied competitor, the detected antibodies are 3C2 and 1H9
[8] = target: human SIRPa-Fc fusion protein (extracellular domain of human SIRPa fused to mouse Fc) (human) (UniProt P78324); experiment: competition ELISA on coated SIRPa-Fc; Kwar is the varied competitor, the detected antibodies are 7E11 and 9B11
[9] = target: human SIRPa-Fc fusion protein (extracellular domain of human SIRPa fused to mouse Fc) (human) (UniProt P78324); experiment: ELISA on coated SIRPa-Fc; 7E11 detected in the absence or presence of 50x or 100x Kwar
[10] = target: human SIRPa-Fc fusion protein (extracellular domain of human SIRPa fused to mouse Fc) (human) (UniProt P78324); experiment: ELISA on coated SIRPa-Fc; mouse 3C2 detected, bar without competitor
[11] = target: human SIRPa-Fc fusion protein (extracellular domain of human SIRPa fused to mouse Fc) (human) (UniProt P78324); experiment: competition ELISA on coated SIRPa-Fc; mouse 3C2 detected, excess 3C2 (or 1H9) is the varied competitor
[12] = target: human SIRPa-Fc fusion protein (extracellular domain of human SIRPa fused to mouse Fc) (human) (UniProt P78324); experiment: ELISA on coated SIRPa-Fc; 3C2 detected in the absence or presence of 50- or 100-times excess of mouse Kwar
[13] = target: human SIRPa-Fc fusion protein (extracellular domain of human SIRPa fused to mouse Fc) (human) (UniProt P78324); experiment: competition ELISA on coated SIRPa-Fc, against mouse 3C2
[14] = target: human SIRPa-Fc fusion protein (extracellular domain of human SIRPa fused to mouse Fc) (human) (UniProt P78324); experiment: competition ELISA on coated SIRPa-Fc; humanized 3C2 is the varied competitor, mouse 3C2 is detected
[15] = target: human SIRP-alpha variant 2 (V2) on monocytes and macrophages of V2 homozygous donors (human) (UniProt Q5TFQ8); experiment: flow cytometry on monocytes; blocking of AF488-conjugated human CD47-Fc (1 ug/ml) binding by increasing Hu1H9-G1
[16] = target: human SIRP-alpha variant 1 (V1) on monocytes and macrophages of V1 homozygous donors (human) (UniProt P78324); experiment: as above
[17] = target: human SIRP-alpha variant 2 (V2) on monocytes and macrophages of V2 homozygous donors (human) (UniProt Q5TFQ8); experiment: flow cytometry on monocytes and macrophages of genotyped donors
[18] = target: human SIRP-alpha variant 1 (V1) on monocytes and macrophages of V1 homozygous donors (human) (UniProt P78324); experiment: as above
[19] = target: human SIRPa-Fc fusion protein (extracellular domain of human SIRPa fused to mouse Fc) (human) (UniProt P78324); experiment: competition ELISA on coated SIRPa-Fc, against mouse 1H9
[20] = target: human SIRP-alpha variant 2 (V2) on monocytes and macrophages of V2 homozygous donors (human) (UniProt Q5TFQ8); experiment: binding to cells of genotyped donors (figure legend)
[21] = target: human SIRP-alpha variant 1 (V1) on monocytes and macrophages of V1 homozygous donors (human) (UniProt P78324); experiment: as above
[22] = target: human SIRPa-Fc fusion protein (extracellular domain of human SIRPa fused to mouse Fc) (human) (UniProt P78324); experiment: competition ELISA on coated SIRPa-Fc; humanized 1H9 is the varied competitor, mouse 1H9 is detected
[23] = target: human SIRP-alpha variant 2 (V2) on monocytes and macrophages of V2 homozygous donors (human) (UniProt Q5TFQ8); experiment: flow cytometry with 1H9-488 on monocytes and macrophages of genotyped donors
[24] = target: human SIRP-alpha variant 1 (V1) on monocytes and macrophages of V1 homozygous donors (human) (UniProt P78324); experiment: as above

Protein sequences, listed by entry. Tags and fused reporters are not part of them. Lines headed by an entry give the natural chain unless they say otherwise; changes in a name come on top.
UniProt P78324: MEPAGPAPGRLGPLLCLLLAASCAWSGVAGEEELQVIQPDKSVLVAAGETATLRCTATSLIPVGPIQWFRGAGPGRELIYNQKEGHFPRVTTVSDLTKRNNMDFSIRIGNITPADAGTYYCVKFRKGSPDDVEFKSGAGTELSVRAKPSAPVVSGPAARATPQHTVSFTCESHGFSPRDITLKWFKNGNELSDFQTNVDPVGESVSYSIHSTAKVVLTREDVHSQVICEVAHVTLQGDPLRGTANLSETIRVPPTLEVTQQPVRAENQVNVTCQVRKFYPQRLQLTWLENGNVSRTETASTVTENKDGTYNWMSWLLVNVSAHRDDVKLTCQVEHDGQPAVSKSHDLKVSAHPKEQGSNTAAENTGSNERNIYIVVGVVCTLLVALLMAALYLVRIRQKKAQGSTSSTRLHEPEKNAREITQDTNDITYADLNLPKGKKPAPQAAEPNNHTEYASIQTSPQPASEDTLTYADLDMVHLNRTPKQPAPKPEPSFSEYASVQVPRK
UniProt Q5TFQ8: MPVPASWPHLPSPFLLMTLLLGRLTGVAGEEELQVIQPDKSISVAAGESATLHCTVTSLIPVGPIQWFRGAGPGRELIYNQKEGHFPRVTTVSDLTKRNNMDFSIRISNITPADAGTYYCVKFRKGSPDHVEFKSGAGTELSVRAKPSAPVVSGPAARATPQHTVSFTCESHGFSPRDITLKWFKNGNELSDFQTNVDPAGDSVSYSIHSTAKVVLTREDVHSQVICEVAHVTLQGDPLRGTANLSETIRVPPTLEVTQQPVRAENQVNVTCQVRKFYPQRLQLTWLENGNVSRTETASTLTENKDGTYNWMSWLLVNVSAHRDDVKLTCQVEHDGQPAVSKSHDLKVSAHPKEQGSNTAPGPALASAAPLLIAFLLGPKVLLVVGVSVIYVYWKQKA

Measured: binding

B1: 1H9 (parental mouse anti-human SIRPa monoclonal antibody) (antibody, V domains shown)
VH: QVQLQQPGAERVKPGASVKMSCKASGYTFTSYWITWVKQRPGQGLEWIGDIYPGSGSTNHIEKFKSKATLTVDTSSNTAYMQLSRLTSEDSAVYYCATGYGSSYGYFDYWGQGTTLTVSS
VL: DIQMTQSPASLSASVGETVTITCRASENIYSYLAWYQQKQGKSPQLLVYTAKTLAEGVPSRFSGSGSGTQFSLKINSLQPEDFGNYYCQHQYGPPFTFGSGTRLVIK
binds: [1] | [2] | [3] | [4]

B2: 9B11 (antibody, V domains shown)
VH: EVQLQQSGAELVKPGASVKLSCTASGFNIKDYYIHWVKQRTEQGLEWIGRIDPEDGETKYAPKFQGKATITADTSSNTAYLQLNSLTSEDTAVYSCAKGGFAYWGQGTLVTVSA
VL: QIVLTQSPAIMSASPGEKVTLTCSASSSVSSSYLYWYQQKPGSSPKLWIYSTSNLASGVPARFSGSGSGTSYSLTISSMEAEDAASYFCHQWSSHPYTFGGGTKLEIK
binds: [5]

B3: KWar (anti-SIRPa antibody of WO 2015/138600) (antibody, V domains shown)
VH: EVQLVQSGAEVKKPGATVKISCKVSGFNIKDYYIHWVQQAPGKGLEWIGRIDPEDGETKYAPKFQDRATITADTSTDTAYMELSSLRSEDTAVYYCARWGAYWGQGTLVTVSS
VL: QIVLTQSPPTLSLSPGERVTLTCSASSSVSSSYLYWYQQKPGQAPKLWIYSTSNLASGVPARFSGSGSGTSYTLTISSLQPEDFAVYFCHQWSSYPRTFGAGTKLEIK
binds: [6] | [7] | [8]

B4: 7E11 (antibody, V domains shown)
VH: QVKLQESGAELVRPGSSVKLSCKASGYTFTSYWMHWVKQRPIQGLEWIGNIDPSDSDTHYNQKFKDKATLTVDNSSSTAYMQLSSLTSEDSAVYYCASYGNYGENAMDYWGQGTSVTVSS
VL: DILMTQTPLSLPVSLGDQASISCRSSQSIVHSYGNTYLEWYLQKPGQSPKLLIYKVSNRFSGVPDRFSGSGSGTDFTLKISRVEAEDLGVYYCFQGSHVPFTFGSGTKLEIK
binds: [9]

B5: 3C2 (parental mouse anti-human SIRPa monoclonal antibody) (antibody, V domains shown)
VH: QVQLQQPGAELVRPGSSVKLSCKASGYTFTSYWMHWVKQRPIQGLEWIGNIDPSDSDTHYNQKFKDKATLTVDKSSSTAYMQLSSLTSEDSAVYYCARGYSKYYAMDYWGQGTSVTVSS
VL: DVLMTQTPLSLSVSLGDQASISCRSSQSIVHSYGNTYLEWYLQKPGQSPKLLIYKVSNRFSGVPDRFSGSGSGTDFTLKISRVEAEDLGVYYCFQGSHVPYTFGGGTKLEIK
binds: [2] | [10] | [11] | [12]

B6: Humanized 3C2 (antibody, human IgG1, kappa, N297A, V domains shown)
VH: QVQLVQSGAEVKKPGASVKVSCKASGYTFTSYWMHWVRQAPGQGLEWMGNIDPSDSDTHYNQKFKDRVTMTRDTSTSTVYMELSSLRSEDTAVYYCARGYSKYYAMDYWGQGTLVTVSS
VL: DIVMTQTPLSLSVTPGQPASISCRSSQSIVHSYGNTYLEWYLQKPGQSPQLLIYKVSNRFSGVPDRFSGSGSGTDFTLKISRVEAEDVGVYYCFQGSHVPYTFGQGTKLEIKR
binds: [13] | [14]

B7: Humanized 1H9 (antibody, human IgG1, kappa, N297A, V domains shown)
VH: QVQLVQSGAEVKKPGASVKVSCKASGYTFTSYWITWVKQAPGQGLEWIGDIYPGSGSTNHIEKFKSKATLTVDTSISTAYMELSRLRSDDTAVYYCATGYGSSYGYFDYWGQGTLVTVSS
VL: DIQMTQSPSSLSASVGDRVTITCRASENIYSYLAWYQQKPGKAPKLLIYTAKTLAEGVPSRFSGSGSGTDFTLTISSLQPEDFATYYCQHQYGPPFTFGQGTKLEIKR
binds: [15] | [16] | [17] | [18] | [19] | [20] | [21] | [22] | [23] | [24]

— patent US20210171654A1
